Primary screen of a compound library

Each number is a percent effect as filed. How 0% and 100% were set is not recorded. Most values in the screen are low, and negative values occur. The compounds are a random part of those screened.

Mtb cholesterol medium: 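Growth of Mycobacterium tuberculosis over 4 days (cholesterol / DPPC medium with tyloxapol); the read-out is not stated. Compounds at 500 µM. Direction is inferred from retests: higher values go with more growth inhibition. About 18,000 compounds were tested under these conditions; 5% (about 900) showed 50% or more at least once.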
Mtb glucose medium: 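Whole-cell growth test on Mycobacterium tuberculosis, read after 3 days in glucose-containing 7H9 medium; the read-out is not stated. Compounds at 500 µM. Higher reads as more growth inhibition (inferred: compounds with an IC50 in retests scored well above the rest). Of about 18,000 compounds tested this way, about 1,400 (7.9%) reached 50% or more in at least one test.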

CN(C)C(=O)c1cccc(CC#N)c1 read Mtb cholesterol medium: -9.892%; Mtb glucose medium: -11.31%. With CS(=O)(=O)NCC1CCN(CC2CCCO2)CC1 (stereo not shown) the screen gave Mtb cholesterol medium: -20.31%; Mtb glucose medium: -4.55%. For Cc1cnc(C(NS(=O)(=O)c2cccnc2)C2CC2)s1 (stereo not shown) the result was Mtb cholesterol medium: -3.767%; Mtb glucose medium: 20.71%. NCc1nc(C(F)F)no1 gave Mtb cholesterol medium: -16.89%; Mtb glucose medium: 53.16%. Cc1occc1C(=O)NCC(CO)Cc1cccs1 (stereo not shown) gave Mtb cholesterol medium: 55.31%; Mtb glucose medium: 69.36%. CCCc1noc(C(C)Nc2cccc(C(N)=O)c2)n1 (stereo not shown) gave Mtb cholesterol medium: 62.89%; Mtb glucose medium: 67.71%. CSCCCN1CCN(c2cccnc2)CC1 gave Mtb cholesterol medium: 3.21%; Mtb glucose medium: 13.42%. For CCOc1ccc(CNS(=O)(=O)c2cn(C)cn2)cc1 the result was Mtb cholesterol medium: -1.048%; Mtb glucose medium: 3.175%.

With O=C(NCc1ccccc1CO)Nc1nncs1 the screen gave Mtb cholesterol medium: -1.893%; Mtb glucose medium: 4.505%. O=C(CN1CCC(C(F)(F)F)CC1)N1CCNC1=O gave Mtb cholesterol medium: -3.363%; Mtb glucose medium: -7.035%. COC(=O)C(CC(C)C)NC(=O)CSc1nccn1C (stereo not shown) gave Mtb cholesterol medium: -10.85%; Mtb glucose medium: 4.136%. With CCCOc1ccc2c(c1)CCN(C(=O)C(C)N)C2 (stereo not shown) the screen gave Mtb cholesterol medium: 1.749%; Mtb glucose medium: -7.874%. Result for O=C(NCCN1CCNCC1)c1ccco1 was Mtb cholesterol medium: -16.24%; Mtb glucose medium: -6.38%. CNCc1c[nH]nc1C gave Mtb cholesterol medium: -15.24%; Mtb glucose medium: -0.9117%. O=S1(=O)N=C(NCCCO)c2ccccc21 gave Mtb cholesterol medium: 7.706%; Mtb glucose medium: 1.627%. CC(C)COCCC(=O)Nc1nccs1 read Mtb cholesterol medium: -26.46%; Mtb glucose medium: -13.2%.

Result for Cc1cc(N2CCN(CCO)CC2)nc2ccccc12 was Mtb cholesterol medium: 27.3%; Mtb glucose medium: -7.567%. O=S(=O)(NC1CCCC1)C1CCCNC1 (stereo not shown) gave Mtb cholesterol medium: 1.639%; Mtb glucose medium: 2.264%. Result for CSCCC(N)c1nc2ccccc2[nH]1 (stereo not shown) was Mtb cholesterol medium: -24.92%; Mtb glucose medium: 13.66%. CC(=O)N1CCN(Cc2cccc3c2OCCO3)CC1 gave Mtb cholesterol medium: 15.22%; Mtb glucose medium: 13.37%. FC(F)(F)c1cc(C2CCCNC2)[nH]n1 (stereo not shown) gave Mtb cholesterol medium: 23.53%; Mtb glucose medium: 36.64%. With O=C(NCC[S+]([O-])c1ccccc1)N1CCOCC1 (stereo not shown) the screen gave Mtb cholesterol medium: 5.448%; Mtb glucose medium: 14.86%. For N[C@@H](c1ccccc1)[C@@H](N)c1ccccc1 the result was Mtb cholesterol medium: 28.42%; Mtb glucose medium: 40.51%. Cc1nc(O)c(C(=O)N2CCn3cnnc3C2)cc1Br gave Mtb cholesterol medium: -21.73%; Mtb glucose medium: -9.216%.

With CCN(CC)C(=O)Nc1cc2c(cc1C)OCO2 the screen gave Mtb cholesterol medium: -1.984%; Mtb glucose medium: 17.05%. NC(=O)COc1ccc(CNCc2ccccc2)cc1 read Mtb cholesterol medium: 6.756%; Mtb glucose medium: 8.956%. Result for COc1ccc(CCCC(=O)NC2CCOC2)cc1 (stereo not shown) was Mtb cholesterol medium: 0.1353%; Mtb glucose medium: 15.51%. CCOC(C)c1nc(CNC)cs1 (stereo not shown) gave Mtb cholesterol medium: 15.81%; Mtb glucose medium: 9.928%. Result for N[C@@H]1CCN(C(=O)CCSCc2ccccc2)C[C@H]1O was Mtb cholesterol medium: 0.5333%; Mtb glucose medium: 28.64%. With OC1(Cn2ccnn2)CCCNC1 (stereo not shown) the screen gave Mtb cholesterol medium: 0.2607%; Mtb glucose medium: 3.805%. For CC(C)NC(=O)CNC(=O)c1cc2sccc2[nH]1 the result was Mtb cholesterol medium: 7.43%; Mtb glucose medium: 20.53%. N[C@H]1CN(CC(=O)N2CCCCCC2)C[C@@H]1C1CC1 read Mtb cholesterol medium: -10.96%; Mtb glucose medium: 20.98%.

With CN(C)CCNC(=O)c1ccc(Cl)cc1 the screen gave Mtb cholesterol medium: 45.33%; Mtb glucose medium: 51.05%. With CC(C)[C@H](N)C(=O)N(C)CCc1ccncc1 the screen gave Mtb cholesterol medium: -0.5185%; Mtb glucose medium: -1.407%. With O=C(NC1CCCCC1)c1ccc(CO)cc1 the screen gave Mtb cholesterol medium: 63.3%; Mtb glucose medium: 62.19%.

Once more, the final 2:

- CC(C)[C@H](N)C(=O)N(C)CCc1ccncc1 | Mtb cholesterol medium: -0.5185%; Mtb glucose medium: -1.407%
- O=C(NC1CCCCC1)c1ccc(CO)cc1 | Mtb cholesterol medium: 63.3%; Mtb glucose medium: 62.19%

Measurements from “University of Dundee, Small-Polar-MMV Screening Library” (2021), ChEMBL document CHEMBL3988442.